The list shows a part of the results.

Chains of the proteins cited; added tags and fusions are not shown.
UniProt Q0JBA9, entry or part of it: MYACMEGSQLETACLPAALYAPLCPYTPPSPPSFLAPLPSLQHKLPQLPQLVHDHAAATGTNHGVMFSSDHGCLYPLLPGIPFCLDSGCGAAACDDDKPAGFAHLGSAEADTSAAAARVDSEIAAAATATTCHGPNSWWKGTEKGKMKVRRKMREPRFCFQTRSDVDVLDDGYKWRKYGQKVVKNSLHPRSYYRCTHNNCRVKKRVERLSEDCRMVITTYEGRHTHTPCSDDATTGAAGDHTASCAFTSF

42 sequences from PMC7819943, “Rice protein-binding microarrays: a tool to detect cis-acting elements near promoter regions in rice” can be followed below.

The target of the assay is OsWRKY34 (Oryza sativa, UniProt Q0JBA9 1-250). Nature of the assay: protein-binding microarray (RPBM); PBS, 2% BSA, 51.3 ng/ul salmon testes DNA, 50 uM zinc acetate, 200 nM TF, 25 C, 1 h; high values mean tight binding. Conditions: protein: recombinant; tags: N-terminal polyhistidine and DsRed monomer fusion (pET32a); label: CyDye5-dUTP incorporated in the synthesized complementary strand; 3' TTTTT single-stranded linker to array surface; dsDNA, one strand shown. The procedure, abridged:
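Per-feature fluorescence intensity (arbitrary units), read on an Axon 4000B scanner, is the binding signal. Transcription factors carrying an N-terminal polyhistidine tag and DsRed fusion were expressed in E. coli BL21-CodonPlus and purified on Ni–NTA. A custom Agilent array, made double-stranded by primer extension with Cy5-dUTP and blocked with 2% BSA, was incubated with 200 nM protein in PBS, 2% BSA, salmon testes DNA and 50 µM zinc acetate at 25 °C for 1 h and then washed.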
Regarding “AAGTCTATTTTGCTTTCTCAACTCTTGCTCTTGAGTGAATCGGAGTCACCTAGTGCAG”, the binding signal was 9910 fluorescence intensity (a.u.). Next, “CTCCGCCGCCACGCTCGCCCGCTGTTTGCTCCGTCCGCAGCGGAGTCACCTAGTGCAG”: 8350 fluorescence intensity (a.u.); “CACACCTAGGCCGCCTTTTTCAACCGGGGAGCACACCTTTCGGAGTCACCTAGTGCAG”: 10400 fluorescence intensity (a.u.). “ACTTCTTTAGGCGTTGACTTCTCCCTTTTCCTTTACTATTCGGAGTCACCTAGTGCAG”: the binding signal was 14800 fluorescence intensity (a.u.). Turning to “TACCGCCGCCGCCGCCGCTGCCCTTGCCGCTATTTCCTCCCGGAGTCACCTAGTGCAG”, the binding signal was 8240 fluorescence intensity (a.u.).

For “CTTTTCGCATGCATCTTTCGGCCGCGCTCGCGAGCGCACACGGAGTCACCTAGTGCAG”, the binding signal was 10400 fluorescence intensity (a.u.). Next, “GCCTCGCACCACCCTGCGCCTTGCTTGCGCCCGCACGCGCCGGAGTCACCTAGTGCAG”: 10400 fluorescence intensity (a.u.); “ATCTGGTTTTGCGGTTGGGAGATGATTTTGTAATTCGATGCGGAGTCACCTAGTGCAG”: 10500 fluorescence intensity (a.u.); “GCGTGTTCCTCCTCCTACCTATTCCCGGGCCCGCACGTCACGGAGTCACCTAGTGCAG”: 9040 fluorescence intensity (a.u.).

“ACAGCAAACACATCACACATTAATCAATTCGCCTCCAGCACGGAGTCACCTAGTGCAG”: the binding signal was 8260 fluorescence intensity (a.u.). For “GCCTTTTCGCTATATCTCCCATCTGGTGATTCAGGACTCACGGAGTCACCTAGTGCAG”, the binding signal is 9660 fluorescence intensity (a.u.). As for “CAACCTCAAGCCGAAGACCATATCATTGACCACATCTTGCCGGAGTCACCTAGTGCAG”, the binding signal is 10700 fluorescence intensity (a.u.). Consider “CGCTCCGGCATTTCGTCAAACACCAGACGGGCCCATCTCCCGGAGTCACCTAGTGCAG”, for which the binding signal is 9120 fluorescence intensity (a.u.). With “TTCCAAGGCCCAATCTTATGAGTCCCCGCGGCCCACCTAACGGAGTCACCTAGTGCAG”, the binding signal is 9680 fluorescence intensity (a.u.). In the case of “AAGAGTGGTGAGGAGATGCAAGTATGGATAGATTACGACCCGGAGTCACCTAGTGCAG”, the binding signal was 8340 fluorescence intensity (a.u.). “CCGCCCGCCGTCGCTCCGTCCACCGCCCACTGCCGCGCCGCGGAGTCACCTAGTGCAG”: the binding signal was 12000 fluorescence intensity (a.u.). Regarding “CAACCGCAAAACTATATACATGGTCTCTTAACAATACAATCGGAGTCACCTAGTGCAG”, the binding signal was 8180 fluorescence intensity (a.u.).

As to “GACTCATTTTATAGCTCGCGCGACCGCCTCATCGAGCTGACGGAGTCACCTAGTGCAG”, the binding signal is 8730 fluorescence intensity (a.u.). To “GGCCACCACCACCGCCCGCGCGCCACACCTATAAAACCTCCGGAGTCACCTAGTGCAG” belongs 9310 fluorescence intensity (a.u.). Turning to “TTCTTGACTTCTTGCCAGTGCTGTTGTACATCTCAATCCACGGAGTCACCTAGTGCAG”, the binding signal is 9360 fluorescence intensity (a.u.). As to “CTGCAGGCTGCAGCATGCCACTTCAGGTTGACTTTACCACCGGAGTCACCTAGTGCAG”, the binding signal was 9040 fluorescence intensity (a.u.). In the case of “CACCACATGTTTTGTCACAGTCGTCACATGTCTCATCTCTCGGAGTCACCTAGTGCAG”, the binding signal is 15000 fluorescence intensity (a.u.).

Regarding “GATCTATGTGTTTTGAATGTGTGATTTTATGGCTGGGTTTCGGAGTCACCTAGTGCAG”, the binding signal is 12700 fluorescence intensity (a.u.). For “CTAATACTCCATGTGTATAACCATTATCCATTTCATCTAACGGAGTCACCTAGTGCAG”, the binding signal is 9590 fluorescence intensity (a.u.). With “CATGGCCCCACCGCTCAGTGACACGGCAGTTCTCGTTTTGCGGAGTCACCTAGTGCAG”, the binding signal was 9180 fluorescence intensity (a.u.).

On to “GCTTCGGTTCCCCGTTTCCGCCTGTGCCGTGGCCACCGAGCGGAGTCACCTAGTGCAG”, for which the binding signal was 8160 fluorescence intensity (a.u.). Turning to “CTTCTACTGCTGCTTCTCCTCAACCTCTTCTTCTTCTTCCCGGAGTCACCTAGTGCAG”, the binding signal was 9320 fluorescence intensity (a.u.). With “CCGTTTGTTTTTTTTCCTTCTTCAAATATATATATATATACGGAGTCACCTAGTGCAG”, the binding signal is 13200 fluorescence intensity (a.u.). For “TTCCGACTTCATATTTCGCTTATGCTCATACTTTTCAGCCCGGAGTCACCTAGTGCAG”, the binding signal was 8360 fluorescence intensity (a.u.). Next, “AGTGACCAATCATTAGGTGATAAATCCCATATGCTTTTGTCGGAGTCACCTAGTGCAG”: 8210 fluorescence intensity (a.u.); “TTAGCTTAATTATTACAAATTGTTGACTTTTTAAAATCATCGGAGTCACCTAGTGCAG”: 9860 fluorescence intensity (a.u.); “ACATTCACAGTTGCTATAGTTGTTGCTGCCACTGCCTATTCGGAGTCACCTAGTGCAG”: 10900 fluorescence intensity (a.u.). For the sequence “CACTCCACCATTGTCATCTTTACTATCGGTAATTGTTGATCGGAGTCACCTAGTGCAG”, the binding signal is 8440 fluorescence intensity (a.u.). On to “CGCTACCTGCTCGCGCGGGAGCTCGTGGGCCCACCCGCGCCGGAGTCACCTAGTGCAG”, for which the binding signal was 8840 fluorescence intensity (a.u.). As to “GCCGCCACGACACCCTTGTCCTCCTGCTCCGTAGCAGCCTCGGAGTCACCTAGTGCAG”, the binding signal was 9140 fluorescence intensity (a.u.). “TTCACTTGTATTTTTCCATATCGCTTCCATTTTAAGCTGACGGAGTCACCTAGTGCAG”: the binding signal was 14600 fluorescence intensity (a.u.). Next, “TCCATGGCTCATATTGTCTTCGAGTACTCCCATCGATCGACGGAGTCACCTAGTGCAG”: 11400 fluorescence intensity (a.u.). Take “ACTAAGGCCTTTATGCTTGTGGGAGGGATTAAACGAAATTCGGAGTCACCTAGTGCAG”: the binding signal is 14100 fluorescence intensity (a.u.). Regarding “ACTCTAGCAACAAACTCTATGCATACACTATCCCCACTATCGGAGTCACCTAGTGCAG”, the binding signal is 8210 fluorescence intensity (a.u.). As for “AATGTGATTCTTGTCGGATGCATGCTGTTGTTTCTCAGAACGGAGTCACCTAGTGCAG”, the binding signal is 11400 fluorescence intensity (a.u.). In the case of “TCTTCTTGTAGAGGGCTATGAATGATCCTGACTTTTATCTCGGAGTCACCTAGTGCAG”, the binding signal is 8950 fluorescence intensity (a.u.). Consider “ATGTCCAAATTTATTGTTCAATGGCTGATCTGTCCTTTTTCGGAGTCACCTAGTGCAG”, for which the binding signal was 8380 fluorescence intensity (a.u.).
